PubChem BioAssay AID504793, Drosophila RNAi Screening Center | 2011
The deposit covers about 23,000 reagents; this is an unselected part of those that have a named target and a result. Of all reagents, 62 (0.27%) got an active call. 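Calls come from follow-up tests whose scores are not deposited, so confirmed genes may have low counts here; counts are not normalised per plate.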 The raw values are shown without normalisation. Names joined by + are all predicted targets of the reagent.

- Purpose: 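Whole-genome screen for parts of the DNA damage checkpoint at G2/M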 (primary screen)
- System: Drosophila S2R+ cells
- Knock-down reagent: long dsRNA against Drosophila genes, about 0.25 µg dsRNA per well
- Time to read-out: 4 days of dsRNA, then 4 hours of drug before read-out
- Treatment: doxorubicin 0.5 µM for 4 hours to cause double-strand breaks, in cells also given a low, harmless dose of dsRNA against nbs to sensitise the assay
- Detection: 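Per-well count of mitotic cells stained for phospho-histone H3 after doxorubicin exposure, used as mitotic index; counts are raw and not normalised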
- Scale: mitotic cells: higher = more cells in mitosis, weaker G2 arrest
- Rule for the call: 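a call needs confirmation in secondary tests, with other dsRNAs and a check of mitotic timing without damage, not just a high primary count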
- Meaning of the calls: active = confirmed in follow-up tests; inactive = not confirmed

| Gene | amplicon | mitotic cells, replicate 1 | outcome |
| --- | --- | --- | --- |
| CG42673 | DRSC08989 | 8 | inactive |
| CG42673 | DRSC08991 | 3 | inactive |
| CG42673 | DRSC10177 | 6 | inactive |
| CG42673 | DRSC10264 | 3 | inactive |
| CG42673 | DRSC10353 | 3 | inactive |
| CG42673 | DRSC10354 | 4 | inactive |
| CG42673 | DRSC25788 | 7 | inactive |
| CG8036 | DRSC16366 | 8 | inactive |
| ND-B8 (NADH dehydrogenase (ubiquinone) B8 subunit) | DRSC00449 | 2 | inactive |
| CG13654 | DRSC14654 | – | inactive |
| CG30394 | DRSC04074 | 3 | inactive |
| CG30394 | DRSC04260 | 3 | inactive |
| tsr (twinstar) | DRSC04718 | 10 | inactive |
| trio | DRSC07928 | 24 | inactive |
| trio | DRSC08740 | 11 | inactive |
| trio | DRSC26700 | 7 | inactive |
| Mcad (Medium-chain acyl-CoA dehydrogenase) | DRSC09871 | 9 | inactive |
| Mcad (Medium-chain acyl-CoA dehydrogenase) | DRSC25980 | 7 | inactive |
| Whamy (WHAMM and JMY related) | DRSC14574 | 2 | inactive |
| Whamy (WHAMM and JMY related) | DRSC28119 | 14 | inactive |
| hh (hedgehog) | DRSC16965 | 4 | inactive |
| hh (hedgehog) | DRSC29242 | 2 | inactive |
| hh (hedgehog) | DRSC39128 | 14 | inactive |
| RpS10a (Ribosomal protein S10a) | DRSC14161 | 1 | inactive |
| RpS10a (Ribosomal protein S10a) | DRSC26061 | 6 | inactive |
| CG6984 | DRSC07013 | 9 | inactive |
| CG32344 | DRSC08578 | 5 | inactive |

In a second layout: 4 of the entries above
Gene,amplicon,"mitotic cells, replicate 1",outcome
hh (hedgehog),DRSC16965,4,inactive
hh (hedgehog),DRSC29242,2,inactive
hh (hedgehog),DRSC39128,14,inactive
RpS10a (Ribosomal protein S10a),DRSC14161,1,inactive

Continued:
| Gene | amplicon | mitotic cells, replicate 1 | outcome |
| --- | --- | --- | --- |
| eIF3g2 (eukaryotic translation initiation factor 3 subunit g2) | DRSC14275 | 3 | inactive |
| eIF3g2 (eukaryotic translation initiation factor 3 subunit g2) | DRSC28960 | 8 | inactive |
| SNF4Agamma (SNF4/AMP-activated protein kinase gamma subunit) | DRSC13461 | 12 | inactive |
| SNF4Agamma (SNF4/AMP-activated protein kinase gamma subunit) | DRSC13463 | 12 | inactive |
| SNF4Agamma (SNF4/AMP-activated protein kinase gamma subunit) | DRSC15879 | 8 | inactive |
| SNF4Agamma (SNF4/AMP-activated protein kinase gamma subunit) | DRSC16847 | 53 | inactive |
| Aldh (Aldehyde dehydrogenase) | DRSC02717 | 4 | inactive |
| Cap-D3 + tomb | DRSC02347 | 8 | inactive |
| Sema1a (Semaphorin 1a) | DRSC03433 | 5 | inactive |
| MtnC (Metallothionein C) | DRSC22879 | 9 | inactive |
| TBC1D16 (TBC1 domain family member 16) | DRSC02841 | 2 | inactive |
| Lasp | DRSC10379 | 7 | inactive |
| Lasp | DRSC23555 | 4 | inactive |
| spag (spaghetti) | DRSC04717 | 5 | inactive |
| CG13721 | DRSC08330 | 6 | inactive |
| CG7406 | DRSC20042 | 5 | inactive |
| CG7406 | DRSC28709 | – | inactive |
| CG7791 | DRSC04891 | 9 | inactive |
